# “And” between values parts separate entries of the source, which are not always exact repeats. Equal values may be shown once. For some assays here: At least one compound was matched to its structure with a doubt left. Some of these results come from one statement about several compounds together. Where a SMILES comes first, the peptide text is derived from it. [ ]: non-standard residue; d: D form. Hyp = O=C(O)[C@@H]1C[C@@H](O)CN1
# Columns and labels:
# [1] = system: CIA-induced Rheumatoid Arthritis; assay: Mouse CIA-induced Rheumatoid Arthritis Model: body weight, hind paw thickness, clinical score (Example 13); format: in vivo; details: CII-injected mice
# From the text: Clinical score: 0—no change; 1—swelling and erythema of the digit; 2—mild swelling and erythema of the limb; 3—gross swelling and erythema of the digit; 4—gross deformity and inability to use the limb.
# CCL3/MIP-1 alpha = assay: Example 9 Luminex, LPS hPBMCs: CCL3/MIP-1 alpha; format: cell-based, human; details: LPS 5 ug/mL 24 hrs; 100 uM to 1 nM
# Protocol: (§1) Treatment Human PBMCs were pretreated with YY-101, YDE-011 and YDE-043 or reference compound; Xiidra® at various concentration (ranging from 1 nM to 100 uM) for 2 h before stimulation. An equal volume of 0.5% DMSO was used as a vehicle control. Then, the cells were treated with LPS at 5 ug/ml. The supernatants from treated cells were harvested at 24 h and placed in a 96 well for Luminex cytokine & chemokine profiling using a Luminex 200 multiplex assay (Luminex; R&D system, USA).
# (§2) The main study arm with triplicate wells per group in a 24-well plate: • 1. Blank • 2. PBMC: 0.5% DMSO • 3. PBMC+LPS (5 ug/ml) • 4. PBMC+YY-101 100 uM • 5. PBMC+YY-101 10 uM • 6. PBMC+YY-101 1 uM • 7. PBMC+YY-101 0.1 uM • 8. PBMC+YY-101 0.01 uM • 9. PBMC+LPS (5 ug/ml)+Xiidra®100 uM • 10. PBMC+LPS (5 ug/ml)+Xiidra® 10 uM • 11. PBMC+LPS (5 ug/ml)+Xiidra® 1 uM • 12. PBMC+LPS (5 ug/ml)+Xiidra®0.1 uM • 13. PBMC+LPS (5 ug/ml)+Xiidra®0.01 uM • 14. PBMC+LPS (5 ug/ml)+Xiidra®0.001 uM • 15. PBMC+LPS (5 ug/ml)+YY-101 100 uM • 16. PBMC+LPS (5 ug/ml)+YY-101 10 uM • 17. PBMC+LPS (5 ug/ml)+YY-101 1 uM • 18. PBMC+LPS (5 ug/ml)+YY-101 0.1 uM • 19. PBMC+LPS (5 ug/ml)+YY-101 0.01 uM • 20. PBMC+LPS (5 ug/ml)+YY-101 0.001 uM • 21. […]
# (§3) Multiplex assay was used to measure 30 cytokines and chemokines. […] The data was calculated with a standard five-parameter logistic nonlinear regression analysis of the data (xPonent software 4.2, USA). […]
# TNF-alpha = assay: Example 9 Luminex, LPS hPBMCs: TNF-alpha; format: cell-based, human; details: LPS 5 ug/mL 24 hrs; 100 uM to 1 nM
# Protocol: as §1, §2, §3
# IL-6 = assay: Example 9 Luminex, LPS hPBMCs: IL-6; format: cell-based, human; details: LPS 5 ug/mL 24 hrs; 100 uM to 1 nM
# Protocol: as §1, §2, §3
# CCL2/JE/MCP-1 = assay: Example 9 Luminex, LPS hPBMCs: CCL2/JE/MCP-1; format: cell-based, human; details: LPS 5 ug/mL 24 hrs; 100 uM to 1 nM
# Protocol: as §1, §2, §3
# CCL5/RANTES = assay: Example 9 Luminex, LPS hPBMCs: CCL5/RANTES; format: cell-based, human; details: LPS 5 ug/mL 24 hrs; 100 uM to 1 nM
# Protocol: as §1, §2, §3
# human PBMCs = assay: PBMC cell counts (total, live, viability; trypan blue, Countess) with and without LPS and test articles (Example 9); format: cell-based; details: PBMC + LPS(5 ug/ml), test article 0.01 uM; single replicates
# Protocol: as §1
# as §2, with “21. PBMC+LPS (5 ug/ml)+YDE-011 100 uM • 22.” for “21.”
# The number of PBMCs was measured after 24 hr of treatment. […] The number of PBMCs was measured using a Countess automated cell counter (Thermo fisher, USA).
# TIMP-1 = assay: Example 9 Luminex, LPS hPBMCs: TIMP-1; format: cell-based, human; details: LPS 5 ug/mL 24 hrs; 100 uM to 1 nM
# Protocol: as §1, §2, §3
# IL-10 = assay: Example 9 Luminex, LPS hPBMCs: IL-10; format: cell-based, human; details: LPS 5 ug/mL 24 hrs; 100 uM to 1 nM
# Protocol: as §1, §2, §3
# IL-8 = assay: Example 9 Luminex, LPS hPBMCs: IL-8; format: cell-based, human; details: LPS 5 ug/mL 24 hrs; 100 uM to 1 nM
# Protocol: as §1, §2, §3
# IFN-gamma = assay: Example 9 Luminex, LPS hPBMCs: IFN-gamma; format: cell-based, human; details: LPS 5 ug/mL 24 hrs; 100 uM to 1 nM
# Protocol: as §1, §2, §3
# CCL4/MIP-1 beta = assay: Example 9 Luminex, LPS hPBMCs: CCL4/MIP-1 beta; format: cell-based, human; details: LPS 5 ug/mL 24 hrs; 100 uM to 1 nM
# Protocol: as §1, §2, §3
# Fas Ligand = assay: Example 9 Luminex, LPS hPBMCs: Fas Ligand; format: cell-based, human; details: LPS 5 ug/mL 24 hrs; 100 uM to 1 nM
# Protocol: as §1, §2, §3
# CCL20/MIP-3 alpha = assay: Example 9 Luminex, LPS hPBMCs: CCL20/MIP-3 alpha; format: cell-based, human; details: LPS 5 ug/mL 24 hrs; 100 uM to 1 nM
# Protocol: as §1, §2, §3
Structure (SMILES),"inflammation, clinical symptoms and scores in hind paws (in words) [1]",reduction of LPS-induced CCL-3 (CCL3/MIP-1 alpha),reduction of LPS-induced TNF-α (TNF-alpha),reduction of LPS-induced IL-6 (IL-6),reduction of LPS-induced CCL2 (CCL2/JE/MCP-1),reduction of LPS-induced CCL5 (CCL5/RANTES),Viability (human PBMCs),reduction of LPS-induced TIMP-1 (TIMP-1),reduction of LPS-induced IL-10 (IL-10),reduction of LPS-induced IL-8 (IL-8),reduction of LPS-induced IFN-gamma (IFN-gamma),reduction of LPS-induced CCL4 (CCL4/MIP-1 beta),reduction of LPS-induced Fas (Fas Ligand),reduction of LPS-induced CCL20 (CCL20/MIP-3 alpha)
C[C@@H]1C[C@H]2[C@@H]3CCC4=CC(=O)C=C[C@]4(C)[C@@]3(F)[C@@H](O)C[C@]2(C)[C@@]1(O)C(=O)CO [dexamethasone],strongly reduced inflammation and clinical scores in hind paws,,,,,,,,,,,,,
CC(C)C[C@H](NC(=O)[C@H](CCC(N)=O)NC(=O)CNC(=O)[C@@H]1C[C@@H](O)CN1)C(=O)NCC(=O)O [YDE-043] (H-[Hyp]GQLG-OH; N-terminus and C-terminus assumed),,over 70%,more than 50%,more than 50%,more than 50%,more than 50%,72.0% and 91.0% and 69.0%,more than 50%,more than 50%,more than 50%,more than 50%,more than 50%,more than 50%,more than 50%
CC(C)C[C@H](NC(=O)CNC(=O)[C@H](CC(C)C)NC(=O)[C@H](CCC(N)=O)NC(=O)CNC(=O)[C@@H]1C[C@@H](O)CN1)C(=O)N[C@@H](C)C(=O)NCC(=O)N1CCC[C@H]1C(=O)N[C@@H](CCCCN)C(=O)O [YDE-011] (H-[Hyp]GQLGLAGPK-OH),,over 70%,more than 50%,more than 50%,more than 50%,more than 50%,,more than 50%,more than 50%,more than 50%,more than 50%,more than 50%,more than 50%,more than 50%

# Source: patent US20230146455A1, “TREATMENT OF INFLAMMATORY DISEASES WITH PEPTIDES AND PHARMACEUTICAL COMPOSITIONS” (Yuyu Pharma, Inc., priority 2020, published 2023)
